These are yes or no findings as the source states them, for the method shown. In cells and extracts the contact can be indirect. Some binding calls cover weakened binding; strength is not graded here.
Key:
hMap7-V5His6 (human) = hMap7-V5His6 (human) (UniProt Q14244); test: co-IP; lysates of HeLa cells co-expressing V5His6-tagged Map7 proteins with hKif5b-EGFP, 1×NP40 buffer; immunoprecipitated with anti-V5 antibody, probed with anti-GFP and anti-V5
rMap7D2-V5His6 (rat) = rMap7D2-V5His6 (rat) (UniProt D4A4L4); test: as above

The chains behind the UniProt entries cited, without tags or fusion partners.
UniProt Q14244: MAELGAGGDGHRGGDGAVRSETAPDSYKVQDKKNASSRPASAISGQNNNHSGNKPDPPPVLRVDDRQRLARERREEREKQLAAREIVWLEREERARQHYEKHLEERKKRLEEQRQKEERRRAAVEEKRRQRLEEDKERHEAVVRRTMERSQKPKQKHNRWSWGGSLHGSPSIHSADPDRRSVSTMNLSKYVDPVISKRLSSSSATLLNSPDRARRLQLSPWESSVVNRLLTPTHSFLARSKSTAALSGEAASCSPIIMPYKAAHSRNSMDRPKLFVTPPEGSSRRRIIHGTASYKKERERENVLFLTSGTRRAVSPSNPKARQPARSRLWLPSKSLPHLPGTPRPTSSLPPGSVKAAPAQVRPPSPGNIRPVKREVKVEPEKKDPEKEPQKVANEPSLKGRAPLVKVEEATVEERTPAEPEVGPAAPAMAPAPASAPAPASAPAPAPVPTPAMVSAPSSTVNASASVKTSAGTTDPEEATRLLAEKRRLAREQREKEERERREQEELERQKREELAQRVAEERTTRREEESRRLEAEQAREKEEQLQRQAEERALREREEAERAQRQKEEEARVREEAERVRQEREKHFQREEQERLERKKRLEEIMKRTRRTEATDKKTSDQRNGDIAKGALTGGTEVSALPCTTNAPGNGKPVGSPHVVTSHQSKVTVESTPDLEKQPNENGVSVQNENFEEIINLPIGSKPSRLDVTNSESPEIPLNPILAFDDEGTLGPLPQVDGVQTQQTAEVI
UniProt D4A4L4: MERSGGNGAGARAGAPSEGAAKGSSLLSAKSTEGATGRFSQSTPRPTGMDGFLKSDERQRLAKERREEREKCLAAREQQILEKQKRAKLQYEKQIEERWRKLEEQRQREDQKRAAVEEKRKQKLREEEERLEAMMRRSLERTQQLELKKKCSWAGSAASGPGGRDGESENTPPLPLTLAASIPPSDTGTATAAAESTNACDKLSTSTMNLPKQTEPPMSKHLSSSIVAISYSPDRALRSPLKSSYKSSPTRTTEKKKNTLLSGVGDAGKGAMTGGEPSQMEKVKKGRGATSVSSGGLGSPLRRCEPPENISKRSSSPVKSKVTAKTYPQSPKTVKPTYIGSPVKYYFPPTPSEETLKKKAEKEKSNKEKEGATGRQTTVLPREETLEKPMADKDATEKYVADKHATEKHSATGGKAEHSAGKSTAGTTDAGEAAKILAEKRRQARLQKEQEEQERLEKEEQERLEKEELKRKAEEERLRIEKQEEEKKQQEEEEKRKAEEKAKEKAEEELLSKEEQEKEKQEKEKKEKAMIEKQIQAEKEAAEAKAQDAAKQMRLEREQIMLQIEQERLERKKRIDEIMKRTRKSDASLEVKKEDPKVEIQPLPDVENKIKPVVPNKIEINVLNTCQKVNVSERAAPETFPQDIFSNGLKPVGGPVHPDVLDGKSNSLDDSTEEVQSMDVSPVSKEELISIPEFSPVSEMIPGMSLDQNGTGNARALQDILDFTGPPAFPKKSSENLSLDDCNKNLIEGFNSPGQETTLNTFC
UniProt P33176: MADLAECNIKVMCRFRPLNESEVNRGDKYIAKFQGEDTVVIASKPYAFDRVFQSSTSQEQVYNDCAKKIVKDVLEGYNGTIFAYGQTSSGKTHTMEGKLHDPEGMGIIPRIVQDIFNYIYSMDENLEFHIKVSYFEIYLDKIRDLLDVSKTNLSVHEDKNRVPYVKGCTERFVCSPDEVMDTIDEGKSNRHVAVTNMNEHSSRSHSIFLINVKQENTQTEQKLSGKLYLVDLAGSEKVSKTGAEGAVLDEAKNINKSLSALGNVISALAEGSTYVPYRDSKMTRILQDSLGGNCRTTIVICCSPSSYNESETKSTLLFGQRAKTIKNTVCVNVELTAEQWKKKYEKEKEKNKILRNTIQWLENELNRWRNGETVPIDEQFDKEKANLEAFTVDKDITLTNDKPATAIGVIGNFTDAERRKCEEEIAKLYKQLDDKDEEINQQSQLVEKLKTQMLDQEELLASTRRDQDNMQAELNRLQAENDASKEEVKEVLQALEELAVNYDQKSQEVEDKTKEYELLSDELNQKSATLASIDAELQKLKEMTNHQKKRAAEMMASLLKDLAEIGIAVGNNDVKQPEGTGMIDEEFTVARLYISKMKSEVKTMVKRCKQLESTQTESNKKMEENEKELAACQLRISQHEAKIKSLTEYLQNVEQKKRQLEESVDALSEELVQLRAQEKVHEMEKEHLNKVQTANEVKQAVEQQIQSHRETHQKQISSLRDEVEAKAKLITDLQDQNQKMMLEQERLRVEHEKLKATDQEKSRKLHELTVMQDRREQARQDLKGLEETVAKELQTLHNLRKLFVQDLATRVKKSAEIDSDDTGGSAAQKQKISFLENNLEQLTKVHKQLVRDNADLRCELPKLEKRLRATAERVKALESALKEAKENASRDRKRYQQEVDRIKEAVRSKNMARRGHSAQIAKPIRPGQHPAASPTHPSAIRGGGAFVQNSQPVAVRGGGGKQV

binding (hMap7-V5His6 (human)): binds | binding (rMap7D2-V5His6 (rat)): binds
Substance: hKif5b-EGFP (from UniProt P33176 1-963)

Reference: paper PMC9039348
